Laboratory results published in article PMC3088716.
Results are given in words; binding and its absence hold for the method and conditions named. In cells and extracts the contact can be indirect. A yes stands for co-enrichment or nearness to the bait. Other partners may have been found. Tags and fused reporters may be left off the sequences shown.

Protein sequences, listed by entry. Tags and fused reporters are not part of them.
UniProt Q92769: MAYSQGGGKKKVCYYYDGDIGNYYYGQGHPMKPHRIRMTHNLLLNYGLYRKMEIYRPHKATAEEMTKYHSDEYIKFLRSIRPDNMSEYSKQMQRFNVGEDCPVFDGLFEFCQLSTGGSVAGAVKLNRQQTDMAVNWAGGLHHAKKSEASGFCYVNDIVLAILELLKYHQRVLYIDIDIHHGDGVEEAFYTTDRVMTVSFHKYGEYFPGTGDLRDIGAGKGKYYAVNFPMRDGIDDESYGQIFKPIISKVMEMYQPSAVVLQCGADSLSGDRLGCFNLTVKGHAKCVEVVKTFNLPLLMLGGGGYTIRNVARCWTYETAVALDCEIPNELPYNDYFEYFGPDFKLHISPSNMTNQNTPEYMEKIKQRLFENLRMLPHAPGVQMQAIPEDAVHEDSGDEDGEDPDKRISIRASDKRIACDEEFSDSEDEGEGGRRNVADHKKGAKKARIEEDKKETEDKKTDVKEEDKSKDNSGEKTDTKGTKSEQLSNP
UniProt Q13547: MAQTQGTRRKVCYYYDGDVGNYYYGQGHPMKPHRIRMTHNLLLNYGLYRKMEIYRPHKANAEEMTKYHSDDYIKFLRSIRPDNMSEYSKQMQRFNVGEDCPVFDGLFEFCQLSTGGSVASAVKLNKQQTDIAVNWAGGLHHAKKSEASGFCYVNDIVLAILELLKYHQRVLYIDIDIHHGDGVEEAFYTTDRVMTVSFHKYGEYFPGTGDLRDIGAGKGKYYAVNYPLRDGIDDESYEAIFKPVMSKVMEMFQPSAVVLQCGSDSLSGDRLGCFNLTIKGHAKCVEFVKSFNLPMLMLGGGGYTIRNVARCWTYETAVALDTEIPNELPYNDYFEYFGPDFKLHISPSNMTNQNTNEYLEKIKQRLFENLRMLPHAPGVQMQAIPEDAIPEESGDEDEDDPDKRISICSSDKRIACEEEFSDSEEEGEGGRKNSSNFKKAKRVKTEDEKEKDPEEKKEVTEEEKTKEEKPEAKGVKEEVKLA

T1: FLAG-tagged Dnttip1 (mouse) (UniProt Q99LB0)
T1 sequence: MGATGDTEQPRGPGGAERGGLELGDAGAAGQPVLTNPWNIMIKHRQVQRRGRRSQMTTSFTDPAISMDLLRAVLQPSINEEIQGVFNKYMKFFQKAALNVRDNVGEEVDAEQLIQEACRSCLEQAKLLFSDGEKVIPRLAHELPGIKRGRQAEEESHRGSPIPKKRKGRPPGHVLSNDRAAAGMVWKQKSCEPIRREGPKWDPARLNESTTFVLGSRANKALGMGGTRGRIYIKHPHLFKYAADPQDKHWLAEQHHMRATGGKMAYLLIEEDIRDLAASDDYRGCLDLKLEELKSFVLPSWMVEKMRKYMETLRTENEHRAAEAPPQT

T2: FLAG-tagged ZNF541 (mouse) (UniProt Q0GGX2)
T2 sequence: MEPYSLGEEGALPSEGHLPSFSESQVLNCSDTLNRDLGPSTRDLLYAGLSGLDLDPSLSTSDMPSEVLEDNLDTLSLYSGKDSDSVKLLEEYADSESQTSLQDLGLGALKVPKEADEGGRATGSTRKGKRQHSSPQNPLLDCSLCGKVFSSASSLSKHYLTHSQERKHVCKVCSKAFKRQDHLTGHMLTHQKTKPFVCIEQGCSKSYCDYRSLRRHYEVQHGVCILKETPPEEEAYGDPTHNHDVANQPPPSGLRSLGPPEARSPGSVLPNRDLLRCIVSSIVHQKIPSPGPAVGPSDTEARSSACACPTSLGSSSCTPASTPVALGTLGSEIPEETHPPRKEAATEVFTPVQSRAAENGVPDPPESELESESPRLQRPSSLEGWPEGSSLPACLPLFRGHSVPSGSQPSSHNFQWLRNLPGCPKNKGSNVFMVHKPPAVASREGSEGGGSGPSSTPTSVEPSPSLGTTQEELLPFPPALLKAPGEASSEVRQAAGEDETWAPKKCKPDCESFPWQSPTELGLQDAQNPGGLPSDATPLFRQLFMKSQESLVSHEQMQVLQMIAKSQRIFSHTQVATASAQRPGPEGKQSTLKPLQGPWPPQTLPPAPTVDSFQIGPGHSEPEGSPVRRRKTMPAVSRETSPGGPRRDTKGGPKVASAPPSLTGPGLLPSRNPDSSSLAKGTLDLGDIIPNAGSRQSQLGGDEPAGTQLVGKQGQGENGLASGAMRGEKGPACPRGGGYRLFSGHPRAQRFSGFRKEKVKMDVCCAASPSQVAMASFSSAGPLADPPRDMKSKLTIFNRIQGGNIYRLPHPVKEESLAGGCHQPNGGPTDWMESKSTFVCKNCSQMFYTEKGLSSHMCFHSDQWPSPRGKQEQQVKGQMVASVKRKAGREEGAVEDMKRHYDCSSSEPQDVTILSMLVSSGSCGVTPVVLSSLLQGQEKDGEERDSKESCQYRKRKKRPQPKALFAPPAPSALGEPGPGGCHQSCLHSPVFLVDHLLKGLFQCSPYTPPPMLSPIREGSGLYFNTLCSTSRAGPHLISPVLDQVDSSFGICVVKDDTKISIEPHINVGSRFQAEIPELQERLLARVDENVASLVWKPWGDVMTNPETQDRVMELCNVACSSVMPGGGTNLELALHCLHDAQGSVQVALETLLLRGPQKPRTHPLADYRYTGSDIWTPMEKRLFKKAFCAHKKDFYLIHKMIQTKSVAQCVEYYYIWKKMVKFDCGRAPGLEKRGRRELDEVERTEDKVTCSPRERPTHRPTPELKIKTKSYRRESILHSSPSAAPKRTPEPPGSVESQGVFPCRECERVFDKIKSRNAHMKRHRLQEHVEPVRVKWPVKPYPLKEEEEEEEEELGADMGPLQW


Columns and labels:
[1] = biological target: T1, FLAG-tagged Dnttip1 (mouse); assay: affinity purification with mass spectrometry; immunoprecipitation from HEK293 cell lines stably expressing FLAG-tagged ZNF541 or Dnttip1, followed by MudPIT; 3 independent biological samples
[2] = biological target: T2, FLAG-tagged ZNF541 (mouse); assay: as above

binding [1] | binding [2] | Molecule
binds | binds | histone deacetylase 2 (HDAC2), endogenous in HEK293 cells (from UniProt Q92769 1-488) (enzyme)
– | binds | histone deacetylase 1 (HDAC1), endogenous in HEK293 cells (from UniProt Q13547 1-482) (enzyme)
binds | – | endogenous TRERF1 of HEK293 cells (protein, UniProt Q96PN7 1-1200) MGDQQLYKTNHVAHGSENLFYQQPPLGVHSGLNHNYGNAVTGGGMDAPQASPISPHFPQDTRDGLGLPVGSKNLGQMDTSRQGGWGSHAGPGNHVQLRGNLANSNMMWGAPAQAEPTDGYQYTYSQASEIRTQKLTSGVLHKLDSFTQVFANQNLRIQVNNMAQVLHTQSAVMDGAPDSALRQLLSQKPMEPPAPAIPSRYQQVPQQPHPGFTGGLSKPALQVGQHPTQGHLYYDYQQPLAQVPVQGGQPLQAPQMLSQHMQQMQQHQYYPPQQQQQAGQQRISMQEIQTQPQQIRPSQPQPPPQQQQPQQLQLQQRQGSMQIPQYYQPQPMMQHLQEQQQQQMHLQPPSYHRDPHQYTPEQAHTVQLIPLGSMSQYYYQEPQQPYSHPLYQQSHLSQHQQREDSQLKTYSSDRQAQAMLSSHGDLGPPDTGMGDPASSDLTRVSSTLPHRPLLSPSGIHLNNMGPQHQQLSPSAMWPQMHLPDGRAQPGSPESSGQPKGAFGEQFDAKNKLTCSICLKEFKNLPALNGHMRSHGGMRASPNLKQEEGEKVLPPQPQPPLPPPPPPPPPPQLPPEAESLTPMVMPVSVPVKLLPPKPSSQGFTNSTVAAPSARDKPASSMSDDEMPVLEIPRKHQPSVPKAEEPLKTVQEKKKFRHRPEPLFIPPPPSYNPNPAASYSGATLYQSQLRSPRVLGDHLLLDPTHELPPYTPPPMLSPVRQGSGLFSNVLISGHGPGAHPQLPLTPLTPTPRVLLCRSNSIDGSNVTVTPGPGEQTVDVEPRINIGLRFQAEIPELQDISALAQDTHKATLVWKPWPELENHDLQQRVENLLNLCCSSALPGGGTNSEFALHSLFEAKGDVMVALEMLLLRKPVRLKCHPLANYHYAGSDKWTSLERKLFNKALATYSKDFIFVQKMVKSKTVAQCVEYYYTWKKIMRLGRKHRTRLAEIIDDCVTSEEEEELEEEEEEDPEEDRKSTKEEESEVPKSPEPPPVPVLAPTEGPPLQALGQPSGSFICEMPNCGAVFSSRQALNGHARIHGGTNQVTKARGAIPSGKQKPGGTQSGYCSVKSSPSHSTTSGETDPTTIFPCKECGKVFFKIKSRNAHMKTHRQQEEQQRQKAQKAAFAAEMAATIERTTGPVGAPGLLPLDQLSLIKPIKDVDILDDDVVQQLGGVMEEAEVVDTDLLLDDQDSVLLQGDAEL
– | binds | endogenous Dnttip1 of HEK293 cells (protein, UniProt Q9H147 1-329) MGATGDAEQPRGPSGAERGGLELGDAGAAGQLVLTNPWNIMIKHRQVQRRGRRSQMTTSFTDPAISMDLLRAVLQPSINEEIQTVFNKYMKFFQKAALNVRDNVGEEVDAEQLIQEACRSCLEQAKLLFSDGEKVIPRLTHELPGIKRGRQAEEECAHRGSPLPKKRKGRPPGHILSSDRAAAGMVWKPKSCEPIRREGPKWDPARLNESTTFVLGSRANKALGMGGTRGRIYIKHPHLFKYAADPQDKHWLAEQHHMRATGGKMAYLLIEEDIRDLAASDDYRGCLDLKLEELKSFVLPSWMVEKMRKYMETLRTENEHRAVEAPPQT
